# At least one peptide structure holds a part that was inferred or is arguable (an end, a ring closure or a residue). *1 amine or outer side, *2 acyl side, *3 side chain or, on linkers, in order; H or OH if unused. Where a SMILES comes first, the peptide text is derived from it. [ ]: non-standard residue; d: D form. The star is where a group is joined. Succinyl(4-O-cholesteryl) = CC(C)CCC[C@@H](C)[C@H]1CC[C@H]2[C@@H]3CC=C4C[C@@H](OC(=O)CCC(=O)*)CC[C@]4(C)[C@H]3CC[C@]12C; Sta = CC(C)C[C@H](N)[C@@H](O)CC(=O)O; εLys = N[C@@H](CCCCN[*:1])C(=O)[*:2]
# Sequences of proteins named here, by UniProt entry; tags and fusion partners are left off. Residues count along the entry.
# UniProt P56817, 46-501: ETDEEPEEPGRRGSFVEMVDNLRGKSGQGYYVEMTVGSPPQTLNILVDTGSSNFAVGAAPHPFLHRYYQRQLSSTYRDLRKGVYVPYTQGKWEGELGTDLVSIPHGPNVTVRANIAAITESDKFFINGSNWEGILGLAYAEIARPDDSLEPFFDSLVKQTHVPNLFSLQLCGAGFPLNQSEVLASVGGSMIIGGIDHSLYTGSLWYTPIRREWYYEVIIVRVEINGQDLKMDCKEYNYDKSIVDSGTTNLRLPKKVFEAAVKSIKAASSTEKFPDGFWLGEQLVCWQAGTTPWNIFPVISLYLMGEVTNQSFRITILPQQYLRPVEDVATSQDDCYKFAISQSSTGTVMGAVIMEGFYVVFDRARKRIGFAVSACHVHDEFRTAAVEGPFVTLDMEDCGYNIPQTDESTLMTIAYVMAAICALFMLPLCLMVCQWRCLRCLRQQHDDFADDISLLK
# Target: T1, BACE1 (Homo sapiens, UniProt P56817)
# T1 construct: Human HEK293 cells which are stably transfected with a vector expressing a cDNA of the human APP wt gene (APP695); endogenous in cells; host or cells: HEK293 (human), stably transfected with human APP695 wt
# Test: Cellular Aβ-lowering assay (Aβ40 ELISA of culture supernatant)
# Format: cell-based
# Conditions: Aβ40 in supernatant of human HEK293 cells stably transfected with human APP wt (APP695); 18-20 hrs incubation
# Procedure: The compounds were investigated in accordance with the test given hereinafter.
# Cellular Aβ-Lowering Assay:
# Human HEK293 cells which are stably transfected with a vector expressing a cDNA of the human APP wt gene (APP695) were used to assess the potency of the compounds in a cellular assay. The cells were seeded in 96-well microtiter plates in cell culture medium (Iscove, plus 10% (v/v) fetal bovine serum, glutamine, penicillin/streptomycin) to about 80% confluence and the compounds were added at a 10× concentration in 1/10 volume of medium without FCS containing 8% DMSO (final concentration of DMSO was kept at 0.8% v/v). After 18-20 hrs incubation at 37° C. and 5% CO2 in a humidified incubator the culture supernatant was harvested for the determination of Aβ40 concentrations. 96 well ELISA plates (e.g., Nunc MaxiSorb) were coated with monoclonal antibody which specifically recognize the C-terminal end of Aβ40 (Brockhaus et al., NeuroReport 9; 1481-1486; 1998). […] After stopping the reaction with one volume 1 N H2SO4 the reaction was measured in an ELISA reader at 450 nm wavelength. The concentrations of Aβ in the culture supernatants were calculated from a standard curve obtained with known amounts of pure Aβ peptide.
smiles,measurement,value
"CC[C@H](C)[C@H](NC(=O)[C@H](Cc1ccccc1)NC(=O)[C@H](Cc1ccc(O)cc1)NC(=O)[C@@H]1CCCN1C(=O)[C@@H](N)Cc1ccc(O)cc1)C(=O)N1CCC[C@H]1C(=O)N[C@@H](CC(C)C)C(=O)NCC(=O)N[C@H](CCCCN)C(=O)NCC(=O)NCCCC[C@H](N)C(=O)N[C@@H](CCC(=O)O)C(=O)N[C@H](C(=O)N[C@@H](CC(N)=O)C(=O)N[C@@H](CC(C)C)[C@@H](O)CC(=O)N[C@H](C(=O)N[C@@H](C)C(=O)N[C@@H](CCC(=O)O)C(=O)N1CCC[C@@H]1C(=O)N[C@@H](CCCCNC(=O)CCC(=O)O[C@H]1CC[C@@]2(C)C(=CC[C@H]3[C@@H]4CC[C@H]([C@H](C)CCCC(C)C)[C@@]4(C)CC[C@@H]32)C1)C(N)=O)C(C)C)C(C)C [Example 62, Lys(-Gly-DLys-Gly-Leu-Pro-Ile-Phe-Tyr-Pro-Tyr)-Glu-Val-Asn-Sta-Val-Ala-Glu-DPro-Lys(Chol′ester′)-NH2] (H-YPYFIPLG[dK]G[εLys]EVN[Sta]VAE[dP]K(Succinyl(4-O-cholesteryl))-NH2; N-terminus assumed)",IC50,0.043 nM

# Source: patent publication US10683329B2, “Dual-site BACE1 inhibitors” (priority 2014, dated 2020)
